Test results from PubChem BioAssay AID720504 (National Center for Advancing Translational Sciences (NCATS), 2013).
Among all 360,000 compounds or so, about 10,000 (2.8%) were called active. Inconclusive means that the source gave no clear call. Such entries were picked first, then a sample of the others. Calls follow the shape of the dose curve; as a rule, active = well fitted inhibition curve with a large enough effect; inconclusive = small, poorly fitted or top-dose-only effect; inactive = flat fitted curve, though single readings scatter. A potency beside an inconclusive call is a rough fit, not a confirmed value.

Sequences of proteins named here, by UniProt entry; tags and fusion partners are left off.
UniProt P53350, whole entry, looked up: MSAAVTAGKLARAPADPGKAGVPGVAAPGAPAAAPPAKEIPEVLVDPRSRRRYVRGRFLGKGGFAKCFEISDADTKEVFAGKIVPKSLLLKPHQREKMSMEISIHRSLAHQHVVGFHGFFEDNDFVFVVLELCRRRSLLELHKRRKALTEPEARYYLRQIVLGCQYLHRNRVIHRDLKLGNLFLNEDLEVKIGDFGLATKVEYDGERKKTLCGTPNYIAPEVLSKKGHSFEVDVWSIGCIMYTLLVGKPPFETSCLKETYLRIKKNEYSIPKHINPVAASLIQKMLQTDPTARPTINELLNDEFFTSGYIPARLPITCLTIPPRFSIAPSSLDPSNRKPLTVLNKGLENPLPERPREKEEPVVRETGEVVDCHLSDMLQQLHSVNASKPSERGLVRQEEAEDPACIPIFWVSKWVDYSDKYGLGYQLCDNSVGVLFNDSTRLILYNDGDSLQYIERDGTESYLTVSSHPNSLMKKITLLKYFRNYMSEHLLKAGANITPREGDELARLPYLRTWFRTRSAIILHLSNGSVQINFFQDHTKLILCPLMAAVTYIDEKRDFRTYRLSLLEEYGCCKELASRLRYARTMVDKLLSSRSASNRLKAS

Target: Serine/threonine-protein kinase PLK1 (Homo sapiens) (UniProt P53350)
Test: qHTS for Inhibitors of PLK1-PDB (polo-like kinase 1 - polo-box domain): Primary Screen; also: nearly all actives have a fitted effect of over 65% in size; as to max response, negative = inhibition: series mostly up to about 57 µM
Settings: Plk1 PBD binding of FITC phosphopeptide, fluorescence polarization
% is scaled to controls: 0 for no effect and ±100 for the full control effect; potency is read from the fitted curve at half-maximal effect.

Structure (SMILES)	Potency	max response, negative = inhibition
CC(=O)Oc1cc2oc(=O)cc(C)c2cc1Cl	inconclusive: 26.7 µM [inhibitor, partial curve]	–
COC(=O)c1cccc(-n2[nH]nnc2=S)c1	active: 23.8 µM	–
Cc1cc(C)nc(NS(=O)(=O)c2ccc(NC(=S)NC(=O)CC(C)C)cc2)n1	inconclusive: 18.9 µM [inhibitor, partial curve]	–
Cc1sc(-c2cccnc2)nc1OC(=O)C1CC1	inconclusive: 16.8 µM [inhibitor, partial curve]	–
COc1ccc(CC(=O)Nc2ccccc2N2CCCC2)cc1	–	inactive: -9.69%
CCOC(=O)c1c(NC(=O)C2=C(C)NC(=S)NC2c2ccc(F)cc2)sc(C)c1C (stereo not given)	–	inconclusive: -32.3% [inhibitor]
CC(C)C1Cc2c(C#N)c(N)sc(=S)c2CO1 (stereo not given)	–	inconclusive: -33.3% [inhibitor]
C=CCOC1=CS(=O)(=O)N(Cc2ccc(Br)cc2)c2ccc(Br)cc21	inconclusive: 21.2 µM [inhibitor, single point]	–
O=C(NCc1nc(-c2ccc(C(F)(F)F)cc2)no1)c1cccs1	inconclusive: 21.2 µM [inhibitor, single point]	–
CCC(C)(C)C1CCC(NC(=O)N2CCN(c3ccccc3O)CC2)CC1 (stereo not given)	inconclusive: 26.7 µM [inhibitor, single point]	–
O=C(COc1ccc(S(=O)(=O)NC2CCCCC2)cc1Cl)NCc1cccnc1	inconclusive: 15 µM [inhibitor, partial curve]	–
N#C/C(=C(/O)COC(=O)c1ccc(C#N)cc1)c1nc2ccccc2s1	inconclusive: 11.9 µM [inhibitor, partial curve]	–
Cc1ccc2nc(SCC(=O)c3ccc(Cl)s3)[nH]c2c1	–	inactive: 2.84%
Cc1cc(OCC(O)CN2CCCC2)cc(C)c1Cl (stereo not given)	–	inactive: -15.8%
COc1ccc2[nH]c(=O)c(CN(Cc3nnnn3Cc3ccco3)C3CCCCC3)cc2c1	inconclusive: 29.9 µM [inhibitor, partial curve]	–
Cc1ccccc1CNC(=O)CCC(=O)N1CCOc2ccc(Cl)cc21	–	inactive: -17%
O=C(O)COc1ccccc1/C=C1\SC(=O)N(Cc2ccc(F)cc2)C1=O	–	inactive: -24.8%
COc1cc(NC(=S)N2CCCC(C)C2)cc(OC)c1OC (stereo not given)	inconclusive: 26.7 µM [inhibitor, partial curve]	–
O=C(O)c1ccccc1-c1ccccc1C(=O)Nc1cccc(Br)c1	–	inactive: -14%
CC(=O)Nc1ccc(S(=O)(=O)Oc2cccc(/C=C3\SC(N)=NC3=O)c2)cc1	active: 4.23 µM	–
Fc1cccc(Cl)c1CSc1ccc(-c2ccco2)nn1	inconclusive: 29.9 µM [inhibitor, partial curve]	–
O=C1CSC(c2cccnc2)N1CCc1ccccn1 (stereo not given)	inconclusive: 29.9 µM [inhibitor, partial curve]	–
CC(=O)Cc1nsc(Nc2ccc(C)cc2)n1	active: 26.7 µM	–

4 entries from above, as a markdown table:

| Structure (SMILES) | Potency | max response, negative = inhibition |
| --- | --- | --- |
| CCOC(=O)c1c(NC(=O)C2=C(C)NC(=S)NC2c2ccc(F)cc2)sc(C)c1C (stereo not given) | – | inconclusive: -32.3% [inhibitor] |
| C=CCOC1=CS(=O)(=O)N(Cc2ccc(Br)cc2)c2ccc(Br)cc21 | inconclusive: 21.2 µM [inhibitor, single point] | – |
| Cc1cc(OCC(O)CN2CCCC2)cc(C)c1Cl (stereo not given) | – | inactive: -15.8% |
| CC(=O)Cc1nsc(Nc2ccc(C)cc2)n1 | active: 26.7 µM | – |

Following part:

Structure (SMILES)	Potency	max response, negative = inhibition
CCOC(=O)N1CCN(C(c2cccnc2)c2ccc3cccnc3c2O)CC1 (stereo not given)	active: 5.97 µM	–
Cc1ccc(CNc2ccc(N3CCOCC3)c(C(=O)O)c2)s1	–	inactive: -9.06%
Cc1c(-n2c(O)c(C3=c4ccccc4=NC3=O)sc2=S)c(=O)n(-c2ccccc2)n1C	–	inactive: -5.77%
O=C(O)c1cccc(N2C(=O)/C(=C/c3ccc(SCc4ccc(Cl)cc4)o3)SC2=S)c1	inconclusive: 3.77 µM [inhibitor, full curve]	–
O=C(Nc1ccc2c(c1)oc1ccccc12)C1CC1	inconclusive: 26.7 µM [inhibitor, single point]	–
CC1(OC(=O)C2CCCC2)C(=O)C=C2C=C(c3ccsc3)N(C3CCCC3)C=C2C1=O (stereo not given)	inconclusive: 15 µM [inhibitor, partial curve]	–
O=S(=O)(c1ccc(=S)[nH]c1)N1CCCCC1	inconclusive: 15 µM [inhibitor, partial curve]	–
COC(=O)N1C(=O)[C@](c2ccccc2)(C2CCCC2)N1C(=O)OC	inconclusive: 23.8 µM [inhibitor, partial curve]	–
COc1cc(/C=C2\SC(N)=NC2=O)cc(OC)c1	active: 13.4 µM	–
Cc1ccc(-c2nc3ccccc3c(=O)n2O)cc1	–	inactive: 4.04%
COC(=O)c1c(NC(=O)c2cccc([N+](=O)[O-])c2)sc(C(N)=O)c1C	inconclusive: 21.2 µM [inhibitor, partial curve]	–
COc1ccc(S(=O)(=O)n2nc(OC(=O)c3ccco3)cc2N)cc1	inconclusive: 23.8 µM [inhibitor, partial curve]	–
CCc1ccc([C@@H]2CC=C(C(=O)O)[C@H](c3ccc(F)cc3)N2S(=O)(=O)c2ccc(C)cc2)cc1	inconclusive: 21.2 µM [inhibitor, single point]	–
O=c1onc(-c2ccccc2)n1-c1cc(Cl)cc(Cl)c1	–	inactive: -5.41%
Cc1ccc(S(=O)(=O)n2cccc2/C=C/[N+](=O)[O-])cc1	active: 7.52 µM	–
C[C@@H]1CN([C@@H](C)CO)C(=O)CCCn2cc(nn2)CO[C@H]1CN(C)S(=O)(=O)c1ccc(C#N)cc1	–	inactive: -11.9%
COc1ccc(-c2ccc(/C=C3\C(=O)N(c4ccccc4)N=C3c3ccccc3)o2)c([N+](=O)[O-])c1	inconclusive: 0.752 µM [inhibitor, full curve]	–
COc1cc(/C=C2\SC(=S)N(NC(=O)c3ccccc3O)C2=O)ccc1O	inconclusive: 2.99 µM [inhibitor, full curve]	–
Cc1cc(C(=O)N/N=C/c2ccc(-c3ccc([N+](=O)[O-])cc3Cl)o2)n[nH]1	inconclusive: 23.8 µM [inhibitor, partial curve]	–
COc1ccc(C2C3=C(CC(C)(C)CC3=O)Nc3c2c(=O)n(C)c(=O)n3C)cc1OC (stereo not given)	active: 11.9 µM	–
Cc1ccc(-c2cc(-c3ccc(F)cc3)c(C#N)c(N)n2)o1	inconclusive: 18.9 µM [inhibitor, single point]	–
Cc1ccc(CN2CCN(/N=C/c3ccc(C(=O)O)cc3)CC2)c(C)c1	–	inactive: -10.3%
